# Test results taken from article PMC8384837.
# Changes are numbered by the printed parent chain. The list shows a part of the results. For some of these results: At the low end of the ranking, values are background and their order means little.
# How the values were obtained:
# Conditions in all cases: yeast three-hybrid, YBZ-1, SC-Leu-His + 0.5 mM 3-AT, 4 days
# [1] = target: T1, PUM1 PUF domain R1-QFR R2-VFQ R7-NPG S863Q + R864F + Q867R + N899V + Y900F + S1079N + N1080P + E1083G (UniProt Q14671)
# T1 sequence: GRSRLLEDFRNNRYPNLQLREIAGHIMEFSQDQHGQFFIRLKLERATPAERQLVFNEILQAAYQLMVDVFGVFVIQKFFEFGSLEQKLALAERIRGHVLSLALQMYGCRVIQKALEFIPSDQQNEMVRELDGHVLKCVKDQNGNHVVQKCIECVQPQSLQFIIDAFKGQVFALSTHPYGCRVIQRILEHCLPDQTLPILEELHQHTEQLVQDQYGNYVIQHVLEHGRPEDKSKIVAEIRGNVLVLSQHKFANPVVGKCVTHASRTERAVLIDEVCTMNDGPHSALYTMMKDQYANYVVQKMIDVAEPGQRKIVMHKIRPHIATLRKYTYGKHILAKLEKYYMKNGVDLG
# [2] = target: T2, PUM1 PUF domain R3-AAE C935A + R936A + Q939E (UniProt Q14671)
# T2 sequence: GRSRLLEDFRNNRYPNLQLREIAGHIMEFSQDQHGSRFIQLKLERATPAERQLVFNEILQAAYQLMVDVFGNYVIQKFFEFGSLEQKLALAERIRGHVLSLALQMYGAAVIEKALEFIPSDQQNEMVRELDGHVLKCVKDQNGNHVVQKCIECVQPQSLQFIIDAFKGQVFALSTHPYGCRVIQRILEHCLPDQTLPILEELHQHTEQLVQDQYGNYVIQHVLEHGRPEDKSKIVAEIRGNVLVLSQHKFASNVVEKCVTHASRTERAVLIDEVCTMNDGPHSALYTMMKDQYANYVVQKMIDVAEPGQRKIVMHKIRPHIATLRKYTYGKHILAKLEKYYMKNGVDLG
# [3] = target: T3, PUM1 PUF domain R3-ACR C935A + R936C + Q939R (UniProt Q14671)
# T3 sequence: T2 sequence with A109C, E112R
# [4] = target: T4, PUM1 PUF domain R3-AIR C935A + R936I + Q939R (UniProt Q14671)
# T4 sequence: T2 sequence with A109I, E112R
# [5] = target: T5, PUM1 PUF domain R3-APA C935A + R936P + Q939A (UniProt Q14671)
# T5 sequence: T2 sequence with A109P, E112A
# [6] = target: T6, PUM1 PUF domain R3-APF C935A + R936P + Q939F (UniProt Q14671)
# T6 sequence: T2 sequence with A109P, E112F
# [7] = target: T7, PUM1 PUF domain R3-APL C935A + R936P + Q939L (UniProt Q14671)
# T7 sequence: T2 sequence with A109P, E112L
# [8] = target: T8, PUM1 PUF domain R3-APR C935A + R936P + Q939R (UniProt Q14671)
# T8 sequence: T2 sequence with A109P, E112R
# [9] = target: T9, PUM1 PUF domain R3-APV C935A + R936P + Q939V (UniProt Q14671)
# T9 sequence: T2 sequence with A109P, E112V
# [10] = target: T10, PUM1 PUF domain R3-ARA C935A + Q939A (UniProt Q14671)
# T10 sequence: T2 sequence with A109R, E112A
# [11] = target: T11, PUM1 PUF domain R3-ARD C935A + Q939D (UniProt Q14671)
# T11 sequence: T2 sequence with A109R, E112D
# [12] = target: T12, PUM1 PUF domain R3-ARG C935A + Q939G (UniProt Q14671)
# T12 sequence: T2 sequence with A109R, E112G
# [13] = target: T13, PUM1 PUF domain R3-ARL C935A + Q939L (UniProt Q14671)
# T13 sequence: T2 sequence with A109R, E112L
# [14] = target: T14, PUM1 PUF domain R3-ARP C935A + Q939P (Homo sapiens) (UniProt Q14671)
# T14 sequence: T2 sequence with A109R, E112P
# [15] = target: T15, PUM1 PUF domain R3-ARR C935A + Q939R (Homo sapiens) (UniProt Q14671)
# T15 sequence: T2 sequence with A109R, E112R
# [16] = target: T16, PUM1 PUF domain R3-ARS C935A + Q939S (UniProt Q14671)
# T16 sequence: T2 sequence with A109R, E112S
# [17] = target: T17, PUM1 PUF domain R3-ART C935A + Q939T (UniProt Q14671)
# T17 sequence: T2 sequence with A109R, E112T
# [18] = target: T18, PUM1 PUF domain R3-ARV C935A + Q939V (UniProt Q14671)
# T18 sequence: T2 sequence with A109R, E112V
# [19] = target: T19, PUM1 PUF domain R3-ASE C935A + R936S + Q939E (UniProt Q14671)
# T19 sequence: T2 sequence with A109S
# [20] = target: T20, PUM1 PUF domain R3-ASY C935A + R936S + Q939Y (UniProt Q14671)
# T20 sequence: T2 sequence with A109S, E112Y
# [21] = target: T21, PUM1 PUF domain R3-ATE C935A + R936T + Q939E (UniProt Q14671)
# T21 sequence: T2 sequence with A109T
# [22] = target: T22, PUM1 PUF domain R3-AWG C935A + R936W + Q939G (UniProt Q14671)
# T22 sequence: T2 sequence with A109W, E112G
# [23] = target: T23, PUM1 PUF domain R3-CHG R936H + Q939G (UniProt Q14671)
# T23 sequence: T2 sequence with A108C, A109H, E112G
# [24] = target: T24, PUM1 PUF domain R3-CNE R936N + Q939E (UniProt Q14671)
# T24 sequence: T2 sequence with A108C, A109N
# [25] = target: T25, PUM1 PUF domain R3-CPG R936P + Q939G (UniProt Q14671)
# T25 sequence: T2 sequence with A108C, A109P, E112G
# [26] = target: T26, PUM1 PUF domain R3-DAK C935D + R936A + Q939K (UniProt Q14671)
# T26 sequence: T2 sequence with A108D, E112K
# [27] = target: T27, PUM1 PUF domain R3-DFE C935D + R936F + Q939E (UniProt Q14671)
# T27 sequence: T2 sequence with A108D, A109F
# [28] = target: T28, PUM1 PUF domain R3-DFL C935D + R936F + Q939L (UniProt Q14671)
# T28 sequence: T2 sequence with A108D, A109F, E112L
# [29] = target: T29, PUM1 PUF domain R3-DFV C935D + R936F + Q939V (UniProt Q14671)
# T29 sequence: T2 sequence with A108D, A109F, E112V
# [30] = target: T30, PUM1 PUF domain R3-DHR C935D + R936H + Q939R (UniProt Q14671)
# T30 sequence: T2 sequence with A108D, A109H, E112R
# [31] = target: T31, PUM1 PUF domain R3-DRE C935D + Q939E (UniProt Q14671)
# T31 sequence: T2 sequence with A108D, A109R
# [32] = target: T32, PUM1 PUF domain R3-DRL C935D + Q939L (UniProt Q14671)
# T32 sequence: T2 sequence with A108D, A109R, E112L
# [33] = target: T33, PUM1 PUF domain R3-DWE C935D + R936W + Q939E (UniProt Q14671)
# T33 sequence: T2 sequence with A108D, A109W
# [34] = target: T34, PUM1 PUF domain R3-DWS C935D + R936W + Q939S (UniProt Q14671)
# T34 sequence: T2 sequence with A108D, A109W, E112S
# [35] = target: T35, PUM1 PUF domain R3-DYE C935D + R936Y + Q939E (UniProt Q14671)
# T35 sequence: T2 sequence with A108D, A109Y
# [36] = target: T36, PUM1 PUF domain R3-DYS C935D + R936Y + Q939S (UniProt Q14671)
# T36 sequence: T2 sequence with A108D, A109Y, E112S
# [37] = target: T37, PUM1 PUF domain R3-ERS C935E + Q939S (UniProt Q14671)
# T37 sequence: T2 sequence with A108E, A109R, E112S
# [38] = target: T38, PUM1 PUF domain R3-ESL C935E + R936S + Q939L (UniProt Q14671)
# T38 sequence: T2 sequence with A108E, A109S, E112L
# [39] = target: T39, PUM1 PUF domain R3-EWL C935E + R936W + Q939L (UniProt Q14671)
# T39 sequence: T2 sequence with A108E, A109W, E112L
# [40] = target: T40, PUM1 PUF domain R3-EWV C935E + R936W + Q939V (Homo sapiens) (UniProt Q14671)
# T40 sequence: T2 sequence with A108E, A109W, E112V
sequence,measurement,setting,value
GGCUAGAACUAGUGGAUCCCCCGGCGCCCGGCGGCUCGAGCCCGGGUAAGUGUAACUAGUCUGCAUGCCGCCGGGCGCCAUGCCUGCAGGUCGACUCUAGAAAACAUG,binding signal (log2 enrichment (interaction score)),[1],-5.45
same,binding signal (log2 enrichment (interaction score)),[2],< -7.64
same,binding signal (log2 enrichment (interaction score)),[3],-2.13
same,binding signal (log2 enrichment (interaction score)),[4],< -8.87
same,binding signal (log2 enrichment (interaction score)),[5],< -8.57
same,binding signal (log2 enrichment (interaction score)),[6],< -7.15
same,binding signal (log2 enrichment (interaction score)),[7],< -8.01
same,binding signal (log2 enrichment (interaction score)),[8],-4.19
same,binding signal (log2 enrichment (interaction score)),[9],< -7.65
same,binding signal (log2 enrichment (interaction score)),[10],-2.74
same,binding signal (log2 enrichment (interaction score)),[11],< -9.37
same,binding signal (log2 enrichment (interaction score)),[12],-2.58
same,binding signal (log2 enrichment (interaction score)),[13],-4.23
same,binding signal (log2 enrichment (interaction score)),[14],-1.81
same,binding signal (log2 enrichment (interaction score)),[15],0.01
same,binding signal (log2 enrichment (interaction score)),[16],-2.77
same,binding signal (log2 enrichment (interaction score)),[17],< -7.11
same,binding signal (log2 enrichment (interaction score)),[18],-3
same,binding signal (log2 enrichment (interaction score)),[19],-3.09
same,binding signal (log2 enrichment (interaction score)),[20],< -7.47
same,binding signal (log2 enrichment (interaction score)),[21],< -7.14
same,binding signal (log2 enrichment (interaction score)),[22],< -8.31
same,binding signal (log2 enrichment (interaction score)),[23],< -6.44
same,binding signal (log2 enrichment (interaction score)),[24],< -8.02
same,binding signal (log2 enrichment (interaction score)),[25],-5.73
same,binding signal (log2 enrichment (interaction score)),[26],< -7.35
same,binding signal (log2 enrichment (interaction score)),[27],-4.08
same,binding signal (log2 enrichment (interaction score)),[28],< -8.48
same,binding signal (log2 enrichment (interaction score)),[29],< -7.98
same,binding signal (log2 enrichment (interaction score)),[30],-2.67
same,binding signal (log2 enrichment (interaction score)),[31],-4.1
same,binding signal (log2 enrichment (interaction score)),[32],< -9.25
same,binding signal (log2 enrichment (interaction score)),[33],-5.33
same,binding signal (log2 enrichment (interaction score)),[34],< -7.57
same,binding signal (log2 enrichment (interaction score)),[35],< -6.71
same,binding signal (log2 enrichment (interaction score)),[36],< -9.08
same,binding signal (log2 enrichment (interaction score)),[37],-8.12
same,binding signal (log2 enrichment (interaction score)),[38],< -6.81
same,binding signal (log2 enrichment (interaction score)),[39],< -9.2
same,binding signal (log2 enrichment (interaction score)),[40],-0.31

# Three entries from above, as tab-separated lines:
sequence	measurement	setting	value
GGCUAGAACUAGUGGAUCCCCCGGCGCCCGGCGGCUCGAGCCCGGGUAAGUGUAACUAGUCUGCAUGCCGCCGGGCGCCAUGCCUGCAGGUCGACUCUAGAAAACAUG	binding signal (log2 enrichment (interaction score))	[34]	< -7.57
same	binding signal (log2 enrichment (interaction score))	[35]	< -6.71
same	binding signal (log2 enrichment (interaction score))	[36]	< -9.08
